The values that follow come from article PMC7862700.

Amino acid sequences for entries named in this document (tags omitted). A change or cut given only in a name is not applied to a line headed by its entry.
UniProt Q01892: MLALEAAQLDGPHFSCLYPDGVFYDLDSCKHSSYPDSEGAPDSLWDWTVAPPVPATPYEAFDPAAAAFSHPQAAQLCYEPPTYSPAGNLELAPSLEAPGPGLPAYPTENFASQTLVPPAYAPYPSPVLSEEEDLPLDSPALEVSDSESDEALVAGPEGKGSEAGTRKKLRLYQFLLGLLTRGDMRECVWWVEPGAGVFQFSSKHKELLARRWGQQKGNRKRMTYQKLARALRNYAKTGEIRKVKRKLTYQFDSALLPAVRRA

The entries are a selection whose mix differs from that of the whole data set. At the low end of the ranking the order means little.

Holding throughout (test): DAPPL (digital affinity profiling via proximity ligation, sequencing)
What all share (conditions): 10 mM Tris-HCl pH 7.5, 50 mM NaCl, 1 mM DTT, 4% glycerol, room temperature, 30 min; GST-TFs on glutathione beads, 16-mer random dsDNA library, 0.1% …; high values mean tight binding; double strand, one strand shown; scale: fold enrichment (6-mer frequency, TF over GST control)

One assay has as its target T1, ETV2 (UniProt O00321).
T1 sequence: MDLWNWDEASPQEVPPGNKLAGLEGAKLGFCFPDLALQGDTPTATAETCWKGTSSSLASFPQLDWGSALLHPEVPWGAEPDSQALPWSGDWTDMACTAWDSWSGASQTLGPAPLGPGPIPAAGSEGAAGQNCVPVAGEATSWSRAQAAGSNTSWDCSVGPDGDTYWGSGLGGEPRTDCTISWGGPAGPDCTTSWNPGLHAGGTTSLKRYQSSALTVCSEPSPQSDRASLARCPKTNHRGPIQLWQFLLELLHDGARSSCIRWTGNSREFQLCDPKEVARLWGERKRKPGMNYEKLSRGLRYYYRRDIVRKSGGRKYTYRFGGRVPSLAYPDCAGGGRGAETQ

The target of the next assay is T2, ETV3L (UniProt Q6ZN32).
T2 sequence: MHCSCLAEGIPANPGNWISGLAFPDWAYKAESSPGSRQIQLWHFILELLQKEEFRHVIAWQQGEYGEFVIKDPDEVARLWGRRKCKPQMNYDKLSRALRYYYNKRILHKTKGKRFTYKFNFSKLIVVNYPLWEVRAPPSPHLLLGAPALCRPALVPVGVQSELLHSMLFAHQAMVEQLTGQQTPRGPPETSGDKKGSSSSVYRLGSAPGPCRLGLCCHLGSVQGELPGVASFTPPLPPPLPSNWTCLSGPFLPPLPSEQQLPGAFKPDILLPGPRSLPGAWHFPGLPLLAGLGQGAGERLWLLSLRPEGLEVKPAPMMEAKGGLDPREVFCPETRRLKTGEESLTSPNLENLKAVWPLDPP

The target in a further assay is SPIB (UniProt Q01892).
A further assay has as its target T3, EHF (UniProt Q9NZC4).
T3 sequence: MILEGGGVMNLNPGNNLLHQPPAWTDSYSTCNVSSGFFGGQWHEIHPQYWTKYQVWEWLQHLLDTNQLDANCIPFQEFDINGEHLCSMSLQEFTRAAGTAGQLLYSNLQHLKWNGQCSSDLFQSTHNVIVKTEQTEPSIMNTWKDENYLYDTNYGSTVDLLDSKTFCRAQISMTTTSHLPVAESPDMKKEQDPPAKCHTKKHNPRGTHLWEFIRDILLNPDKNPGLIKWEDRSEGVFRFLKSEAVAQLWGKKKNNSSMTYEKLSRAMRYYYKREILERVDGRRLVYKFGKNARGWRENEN

As for CAGAAT, the figures for the binding signal with ETV2 and with ETV3L were 1.13 and 0.984, respectively.

For the sequence TATCGA, the binding signal was found to be 1.44 with ETV2 and 1.41 with ETV3L.

Consider CTTCTG, for which the binding signal with ETV2 stood at 1.32; with ETV3L it was 1.47.

Consider CGACGT, for which the binding signal with ETV2 came to 1.49; in the assay with ETV3L it was 0.989.

On to GTAACT, for which the values for the binding signal in the assay with ETV2 and with ETV3L were 1.2 and 1.28, respectively.

Take CTGCAC: the binding signal with ETV2 worked out at 1.24; with ETV3L it was 1.16.

Consider TGAACT, for which the values for the binding signal with ETV2 and with ETV3L were 1.2 and 1.23, respectively.

Regarding CGAAGC, the binding signal in the assay with ETV2 turned out to be 1.3; with ETV3L, 1.2.

On to CTGCAA, for which the binding signal in the assay with ETV2 is 1.07; with ETV3L, 1.35.

Regarding CGAAAG, the binding signal with ETV2 turned out to be 1.13; in the assay with ETV3L it was 1.05.

As for ATCAGC, the binding signal in the assay with ETV2 was 0.882; in the assay with ETV3L, 0.963.

Regarding AAATTA, the values for the binding signal in the assay with ETV2 and with ETV3L were 1.4 and 1.31, respectively.

In the case of CGACCT, the binding signal was 1.63 with SPIB, 1.73 with ETV2 and 1.75 in the assay with ETV3L.

On to CGATTA, for which the binding signal came out at 1.13 with ETV2 and 1.23 with ETV3L.

CTGTTT: the binding signal with EHF was found to be 1.34; with ETV2, 1.4; in the assay with ETV3L, 1.49.

On to TTAAAA, for which the binding signal with ETV2 is 1.25; with ETV3L, 1.27.

Regarding TTCACC, the binding signal with EHF was 1.19; with ETV2, 1.36; with ETV3L it was 1.32.

Consider ATGTGT, for which the binding signal worked out at 1.11 with ETV2 and 1.1 with ETV3L.

As to TCGTAC, the binding signal in the assay with ETV2 is 1.22; in the assay with ETV3L, 0.993.

Take TTGTGG: the binding signal with ETV2 was found to be 1.29; with ETV3L, 1.6.

For CTTGGG, the binding signal with ETV2 stood at 1.15; in the assay with ETV3L, 1.26.

As for TACACG, the binding signal came out at 1.1 with EHF and 0.999 with ETV2.

Consider GGGCTT, for which the binding signal is 1.24 in the assay with EHF and 0.955 in the assay with ETV2.

As to TGTTCT, the binding signal in the assay with EHF amounted to 1.4; with ETV2 it was 1.23.

Take CCATGC: the binding signal with SPIB turned out to be 0.987; with ETV2, 0.946; in the assay with ETV3L, 0.988.

In the case of TACGCT, the binding signal is 1.25 with EHF and 1.23 with ETV2.

As to AAATCC, the binding signal is 1.58 with EHF and 1.45 with ETV2.

AGAAGC: the binding signal in the assay with EHF came to 1.21; with ETV2, 1.22.

Turning to TGGTTA, the binding signal with EHF was determined as 0.971; in the assay with ETV2, 0.983.

For ATACCC, the binding signal in the assay with EHF turned out to be 1.21; with ETV2 it was 1.24.

Regarding GGTTTC, the binding signal in the assay with EHF is 1.51; with ETV2, 1.43.

TTATTT: the binding signal in the assay with EHF stood at 1.35; with ETV2, 1.26.

On to AACCCA, for which the binding signal with EHF turned out to be 0.949; with ETV2 it was 0.983.

Regarding CCTGGG, the values for the binding signal in the assay with EHF and with ETV2 were 0.965 and 1.29, respectively.

With TAGTCT, the figures for the binding signal with SPIB, with ETV2 and with ETV3L were 0.9, 0.812 and 1.04, respectively.

For CTCAAT, the binding signal in the assay with EHF was 1.25; in the assay with ETV2, 1.4.

With ATATGA, the binding signal in the assay with EHF amounted to 1.07; with ETV2, 0.985.

For the sequence GATTAC, the values for the binding signal with EHF and with ETV2 were 1.12 and 1.1, respectively.

For the sequence CACTGG, the binding signal is 1.05 with EHF and 1.22 with ETV2.

Consider CCGTAA, for which the binding signal with EHF stood at 1.17; with ETV2, 1.2.

Consider TACATT, for which the binding signal came to 1.29 with SPIB, 1.17 with ETV2 and 1.18 in the assay with ETV3L.

With TCACAT, the results for the binding signal in the assay with EHF and with ETV2 were 1.27 and 1.32, respectively.

For the sequence TACTGG, the binding signal with EHF was found to be 0.97; in the assay with ETV2, 1.3.

With CTGTCA, the binding signal with EHF came to 1.12; with ETV2 it was 1.19.

For CTAATG, the values for the binding signal in the assay with EHF and with ETV2 were 1.28 and 1.12, respectively.

In the case of TCCCCA, the binding signal with EHF came out at 1.45; with ETV2, 1.51.

For the sequence TCCACA, the binding signal in the assay with EHF stood at 1.25; in the assay with ETV2, 1.17.

CTATAA: the binding signal in the assay with EHF stood at 1.12; with ETV2, 1.15.

As to AAGCGA, the binding signal was found to be 1 in the assay with SPIB, 0.936 with ETV2 and 1.02 in the assay with ETV3L.

Consider AACGTC, for which the figures for the binding signal in the assay with EHF and with ETV2 were 1.12 and 0.984, respectively.

For the sequence GGATCC, the binding signal with EHF stood at 1.16; with ETV2, 1.29.

For the sequence CTCAAC, the binding signal with EHF amounted to 1.18; with ETV2, 1.29.

Take AATCCC: the binding signal with SPIB is 1.32; in the assay with ETV2, 1.37; with ETV3L, 1.29.

Turning to CGATGA, the binding signal was 1.08 in the assay with EHF and 0.977 with ETV2.

On to CAATAA, for which the binding signal in the assay with SPIB was found to be 1.11; with ETV2, 1.14; with ETV3L, 1.13.

Regarding GAAATC, the binding signal with EHF is 1.53; with ETV2, 1.45.

In the case of CAAAAA, the binding signal is 1.2 with EHF and 1.17 with ETV2.

As to TATCTA, the binding signal amounted to 1.2 with EHF and 1.25 with ETV2.

Turning to AATTTA, the binding signal with SPIB is 1.4; in the assay with ETV2, 1.13; with ETV3L it was 1.25.

Regarding TTCGTA, the results for the binding signal with SPIB and with ETV2 were 1.35 and 1.37, respectively.

For the sequence CCCCCG, the binding signal in the assay with SPIB turned out to be 1.09; with ETV2, 1.03.

Turning to TCTGCC, the values for the binding signal with SPIB and with ETV2 were 1.32 and 1.24, respectively.

With CCCTCC, the binding signal with SPIB came out at 1.39; with ETV2 it was 1.32.

Take AATCAA: the results for the binding signal with EHF, in the assay with SPIB and in the assay with ETV2 were 1.12, 1.14 and 1.48, respectively.

With ACCCCG, the binding signal with EHF turned out to be 1.27; with SPIB it was 1.3; with ETV2, 1.21.

Turning to GTTTTC, the results for the binding signal with SPIB and in the assay with ETV2 were 1.2 and 1.25, respectively.

Turning to TAAGCT, the binding signal turned out to be 1.2 in the assay with EHF and 1.19 in the assay with ETV2.

TCGAAT: the binding signal in the assay with SPIB was determined as 1.07; with ETV2, 1.03.

As for TAACAA, the binding signal with SPIB was found to be 1.13; with ETV2 it was 1.26.

Regarding ATGGAA, the binding signal with SPIB stood at 1.19; in the assay with ETV2, 1.26.
